The results in this text go back to article PMC6361424.

Amino acid sequences for entries named in this document (tags omitted).
UniProt P0A6A8: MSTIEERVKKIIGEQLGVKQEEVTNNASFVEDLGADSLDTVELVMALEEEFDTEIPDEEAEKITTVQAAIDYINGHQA

Results are given in words; binding and its absence hold for the method and conditions named. Binding seen in cells or lysates may run through a third protein. Some results given as binding are weak or reduced against the parent protein; the word gives no strength.

This assay concerns the target His7-ACPEc (E. coli acyl carrier protein) (E. coli MG1655) (UniProt P0A6A8). Nature of the assay: pull-down; His7-ACPEc and AcpSEc coexpressed in E. coli C41(DE3); clarified lysate on His60 Superflow resin in buffer O (500 mM NaCl, 50 mM Tris pH 8.8, 10 mM MgCl2, 5 mM β-mercaptoethanol, 20 mM imidazole), wash 40 mM imidazole, eluted with increasing imidazole; SDS-PAGE.

B1: AcpSEc (E. coli Acyl Carrier Protein Synthase) (enzyme, UniProt P24224 1-126)
chain: MAILGLGTDIVEIARIEAVIARSGDRLARRVLSDNEWAIWKTHHQPVRFLAKRFAVKEAAAKAFGTGIRNGLAFNQFEVFNDELGKPRLRLWGEALKLAEKLGVANMHVTLADERHYACATVIIES
Take B1: the binding entry is given as “binds”.
